The record followed here is paper PMC5270677.

By UniProt entry, the sequences of proteins in these tests, tags left out. Where a name states a change or a piece, a line headed by the entry shows the natural chain unless it says otherwise. Residues count along the entry.
UniProt O00391: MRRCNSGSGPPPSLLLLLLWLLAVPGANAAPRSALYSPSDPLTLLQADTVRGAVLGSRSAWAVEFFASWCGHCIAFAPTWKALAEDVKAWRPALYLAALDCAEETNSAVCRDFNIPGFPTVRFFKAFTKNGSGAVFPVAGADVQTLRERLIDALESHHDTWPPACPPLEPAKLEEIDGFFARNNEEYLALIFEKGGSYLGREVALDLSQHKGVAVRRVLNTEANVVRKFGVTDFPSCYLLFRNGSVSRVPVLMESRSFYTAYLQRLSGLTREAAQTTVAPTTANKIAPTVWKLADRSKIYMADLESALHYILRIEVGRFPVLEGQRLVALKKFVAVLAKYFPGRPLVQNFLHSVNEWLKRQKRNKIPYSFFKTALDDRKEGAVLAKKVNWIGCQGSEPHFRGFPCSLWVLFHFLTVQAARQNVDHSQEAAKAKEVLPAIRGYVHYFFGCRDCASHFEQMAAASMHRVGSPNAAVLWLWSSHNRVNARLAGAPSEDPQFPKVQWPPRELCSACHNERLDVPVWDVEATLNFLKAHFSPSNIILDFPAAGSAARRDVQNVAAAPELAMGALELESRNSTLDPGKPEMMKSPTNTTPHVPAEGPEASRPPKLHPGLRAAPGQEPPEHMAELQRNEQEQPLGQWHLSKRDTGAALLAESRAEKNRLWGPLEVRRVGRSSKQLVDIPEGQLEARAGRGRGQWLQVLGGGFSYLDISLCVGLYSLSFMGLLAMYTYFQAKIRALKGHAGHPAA
UniProt P47852, residues 25-233: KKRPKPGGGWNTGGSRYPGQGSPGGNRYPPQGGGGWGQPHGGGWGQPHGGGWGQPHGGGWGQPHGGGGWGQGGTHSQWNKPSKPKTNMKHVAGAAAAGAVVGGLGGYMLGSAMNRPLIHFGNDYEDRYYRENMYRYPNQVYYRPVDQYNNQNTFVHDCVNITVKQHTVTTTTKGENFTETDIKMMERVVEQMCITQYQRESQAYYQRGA

These are yes or no findings as the source states them, for the method shown. In cells and extracts the contact can be indirect. Binding calls can cover weak binding; strength is not graded here.

This test concerns the target Quiescin-sulfhydryl oxidase (QSOX), recombinant human (human) (UniProt O00391). Nature of the test: pull-down; only the target purified.

With “PrP^Sc from CWD (chronic wasting disease) brain homogenate (from UniProt P47852 25-233)”, the binding entry is “binds”.
